In PMC6695207:
Where two headings read alike, the source gives them in different places. No constants are given. Whether binding was seen depends on the method and setting. In cells and extracts the contact can be indirect. These calls come from enrichment with a bait or labelling near it, and not all partners need be listed. For some assays here: No binding means not detected with the bait. Tags and fused reporters may be left off the sequences shown. One block for each molecule: values may come before it.

The chains behind the UniProt entries cited, without tags or fusion partners. Where a name states a change or a piece, a line headed by the entry shows the natural chain unless it says otherwise.
UniProt P40283: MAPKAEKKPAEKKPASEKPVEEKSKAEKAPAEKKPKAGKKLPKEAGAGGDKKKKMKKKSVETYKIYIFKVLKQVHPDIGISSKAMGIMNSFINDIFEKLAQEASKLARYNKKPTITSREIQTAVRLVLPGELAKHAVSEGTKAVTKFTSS
UniProt Q9SGH2: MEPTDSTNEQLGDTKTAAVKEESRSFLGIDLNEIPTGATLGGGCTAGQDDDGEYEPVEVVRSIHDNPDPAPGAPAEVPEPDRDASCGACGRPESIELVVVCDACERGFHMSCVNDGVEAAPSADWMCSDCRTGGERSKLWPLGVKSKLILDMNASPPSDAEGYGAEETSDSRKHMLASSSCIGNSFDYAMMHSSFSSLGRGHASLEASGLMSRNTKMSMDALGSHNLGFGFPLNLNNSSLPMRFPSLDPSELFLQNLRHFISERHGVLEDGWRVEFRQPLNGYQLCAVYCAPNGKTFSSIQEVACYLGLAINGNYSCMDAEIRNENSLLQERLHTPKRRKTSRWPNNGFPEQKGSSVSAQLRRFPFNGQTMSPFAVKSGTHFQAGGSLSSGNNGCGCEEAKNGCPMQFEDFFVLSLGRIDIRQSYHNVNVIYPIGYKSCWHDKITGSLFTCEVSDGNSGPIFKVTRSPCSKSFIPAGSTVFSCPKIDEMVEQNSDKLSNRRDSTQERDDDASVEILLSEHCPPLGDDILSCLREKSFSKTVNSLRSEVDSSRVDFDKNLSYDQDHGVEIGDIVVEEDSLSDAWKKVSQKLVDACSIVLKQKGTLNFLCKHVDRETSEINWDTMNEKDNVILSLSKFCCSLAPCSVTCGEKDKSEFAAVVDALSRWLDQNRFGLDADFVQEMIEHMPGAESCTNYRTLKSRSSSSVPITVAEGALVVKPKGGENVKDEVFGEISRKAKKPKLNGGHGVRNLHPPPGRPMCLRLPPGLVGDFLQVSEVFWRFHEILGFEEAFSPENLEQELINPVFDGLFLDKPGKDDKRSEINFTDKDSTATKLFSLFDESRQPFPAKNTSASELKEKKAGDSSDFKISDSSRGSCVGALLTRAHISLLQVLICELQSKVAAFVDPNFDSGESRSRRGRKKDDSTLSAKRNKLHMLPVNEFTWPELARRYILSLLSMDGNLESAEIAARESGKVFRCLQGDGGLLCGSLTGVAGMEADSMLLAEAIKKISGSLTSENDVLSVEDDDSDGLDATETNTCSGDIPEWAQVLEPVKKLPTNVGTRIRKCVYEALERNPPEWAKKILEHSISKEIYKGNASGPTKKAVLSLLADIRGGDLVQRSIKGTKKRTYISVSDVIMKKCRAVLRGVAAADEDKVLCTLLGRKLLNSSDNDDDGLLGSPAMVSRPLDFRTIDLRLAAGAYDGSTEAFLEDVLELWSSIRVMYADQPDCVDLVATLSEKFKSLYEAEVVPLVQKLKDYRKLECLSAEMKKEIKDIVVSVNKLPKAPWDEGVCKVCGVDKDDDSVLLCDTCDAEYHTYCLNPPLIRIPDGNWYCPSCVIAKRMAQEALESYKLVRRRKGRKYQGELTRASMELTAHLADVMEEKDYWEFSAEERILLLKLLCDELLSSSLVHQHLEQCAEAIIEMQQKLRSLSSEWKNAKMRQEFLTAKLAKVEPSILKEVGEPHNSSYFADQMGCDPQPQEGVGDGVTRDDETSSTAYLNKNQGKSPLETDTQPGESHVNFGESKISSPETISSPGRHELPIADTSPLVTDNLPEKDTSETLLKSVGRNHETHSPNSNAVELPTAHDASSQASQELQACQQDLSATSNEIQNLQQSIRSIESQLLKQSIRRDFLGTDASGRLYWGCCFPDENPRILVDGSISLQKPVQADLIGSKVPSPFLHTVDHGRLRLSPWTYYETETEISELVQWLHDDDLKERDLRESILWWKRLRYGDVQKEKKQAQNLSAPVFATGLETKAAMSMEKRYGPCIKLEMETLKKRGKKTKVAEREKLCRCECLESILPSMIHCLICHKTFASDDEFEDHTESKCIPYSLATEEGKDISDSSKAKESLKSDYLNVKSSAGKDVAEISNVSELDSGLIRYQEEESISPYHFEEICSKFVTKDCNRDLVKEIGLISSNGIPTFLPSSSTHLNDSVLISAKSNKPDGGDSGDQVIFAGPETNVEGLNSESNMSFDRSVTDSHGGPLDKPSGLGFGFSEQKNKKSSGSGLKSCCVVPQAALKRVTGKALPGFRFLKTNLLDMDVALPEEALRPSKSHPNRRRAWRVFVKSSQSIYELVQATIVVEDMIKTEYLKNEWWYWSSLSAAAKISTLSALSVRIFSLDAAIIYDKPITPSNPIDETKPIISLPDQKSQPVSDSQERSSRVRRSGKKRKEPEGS
UniProt O23628: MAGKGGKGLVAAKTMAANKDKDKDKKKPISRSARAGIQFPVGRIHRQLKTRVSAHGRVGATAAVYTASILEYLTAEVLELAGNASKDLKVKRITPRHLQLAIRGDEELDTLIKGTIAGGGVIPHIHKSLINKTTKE
UniProt Q9FFC0: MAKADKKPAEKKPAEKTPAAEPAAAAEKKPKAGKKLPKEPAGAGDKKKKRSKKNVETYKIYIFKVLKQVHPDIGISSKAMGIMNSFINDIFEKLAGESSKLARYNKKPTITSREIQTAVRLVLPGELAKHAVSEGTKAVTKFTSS
UniProt F4IPJ1: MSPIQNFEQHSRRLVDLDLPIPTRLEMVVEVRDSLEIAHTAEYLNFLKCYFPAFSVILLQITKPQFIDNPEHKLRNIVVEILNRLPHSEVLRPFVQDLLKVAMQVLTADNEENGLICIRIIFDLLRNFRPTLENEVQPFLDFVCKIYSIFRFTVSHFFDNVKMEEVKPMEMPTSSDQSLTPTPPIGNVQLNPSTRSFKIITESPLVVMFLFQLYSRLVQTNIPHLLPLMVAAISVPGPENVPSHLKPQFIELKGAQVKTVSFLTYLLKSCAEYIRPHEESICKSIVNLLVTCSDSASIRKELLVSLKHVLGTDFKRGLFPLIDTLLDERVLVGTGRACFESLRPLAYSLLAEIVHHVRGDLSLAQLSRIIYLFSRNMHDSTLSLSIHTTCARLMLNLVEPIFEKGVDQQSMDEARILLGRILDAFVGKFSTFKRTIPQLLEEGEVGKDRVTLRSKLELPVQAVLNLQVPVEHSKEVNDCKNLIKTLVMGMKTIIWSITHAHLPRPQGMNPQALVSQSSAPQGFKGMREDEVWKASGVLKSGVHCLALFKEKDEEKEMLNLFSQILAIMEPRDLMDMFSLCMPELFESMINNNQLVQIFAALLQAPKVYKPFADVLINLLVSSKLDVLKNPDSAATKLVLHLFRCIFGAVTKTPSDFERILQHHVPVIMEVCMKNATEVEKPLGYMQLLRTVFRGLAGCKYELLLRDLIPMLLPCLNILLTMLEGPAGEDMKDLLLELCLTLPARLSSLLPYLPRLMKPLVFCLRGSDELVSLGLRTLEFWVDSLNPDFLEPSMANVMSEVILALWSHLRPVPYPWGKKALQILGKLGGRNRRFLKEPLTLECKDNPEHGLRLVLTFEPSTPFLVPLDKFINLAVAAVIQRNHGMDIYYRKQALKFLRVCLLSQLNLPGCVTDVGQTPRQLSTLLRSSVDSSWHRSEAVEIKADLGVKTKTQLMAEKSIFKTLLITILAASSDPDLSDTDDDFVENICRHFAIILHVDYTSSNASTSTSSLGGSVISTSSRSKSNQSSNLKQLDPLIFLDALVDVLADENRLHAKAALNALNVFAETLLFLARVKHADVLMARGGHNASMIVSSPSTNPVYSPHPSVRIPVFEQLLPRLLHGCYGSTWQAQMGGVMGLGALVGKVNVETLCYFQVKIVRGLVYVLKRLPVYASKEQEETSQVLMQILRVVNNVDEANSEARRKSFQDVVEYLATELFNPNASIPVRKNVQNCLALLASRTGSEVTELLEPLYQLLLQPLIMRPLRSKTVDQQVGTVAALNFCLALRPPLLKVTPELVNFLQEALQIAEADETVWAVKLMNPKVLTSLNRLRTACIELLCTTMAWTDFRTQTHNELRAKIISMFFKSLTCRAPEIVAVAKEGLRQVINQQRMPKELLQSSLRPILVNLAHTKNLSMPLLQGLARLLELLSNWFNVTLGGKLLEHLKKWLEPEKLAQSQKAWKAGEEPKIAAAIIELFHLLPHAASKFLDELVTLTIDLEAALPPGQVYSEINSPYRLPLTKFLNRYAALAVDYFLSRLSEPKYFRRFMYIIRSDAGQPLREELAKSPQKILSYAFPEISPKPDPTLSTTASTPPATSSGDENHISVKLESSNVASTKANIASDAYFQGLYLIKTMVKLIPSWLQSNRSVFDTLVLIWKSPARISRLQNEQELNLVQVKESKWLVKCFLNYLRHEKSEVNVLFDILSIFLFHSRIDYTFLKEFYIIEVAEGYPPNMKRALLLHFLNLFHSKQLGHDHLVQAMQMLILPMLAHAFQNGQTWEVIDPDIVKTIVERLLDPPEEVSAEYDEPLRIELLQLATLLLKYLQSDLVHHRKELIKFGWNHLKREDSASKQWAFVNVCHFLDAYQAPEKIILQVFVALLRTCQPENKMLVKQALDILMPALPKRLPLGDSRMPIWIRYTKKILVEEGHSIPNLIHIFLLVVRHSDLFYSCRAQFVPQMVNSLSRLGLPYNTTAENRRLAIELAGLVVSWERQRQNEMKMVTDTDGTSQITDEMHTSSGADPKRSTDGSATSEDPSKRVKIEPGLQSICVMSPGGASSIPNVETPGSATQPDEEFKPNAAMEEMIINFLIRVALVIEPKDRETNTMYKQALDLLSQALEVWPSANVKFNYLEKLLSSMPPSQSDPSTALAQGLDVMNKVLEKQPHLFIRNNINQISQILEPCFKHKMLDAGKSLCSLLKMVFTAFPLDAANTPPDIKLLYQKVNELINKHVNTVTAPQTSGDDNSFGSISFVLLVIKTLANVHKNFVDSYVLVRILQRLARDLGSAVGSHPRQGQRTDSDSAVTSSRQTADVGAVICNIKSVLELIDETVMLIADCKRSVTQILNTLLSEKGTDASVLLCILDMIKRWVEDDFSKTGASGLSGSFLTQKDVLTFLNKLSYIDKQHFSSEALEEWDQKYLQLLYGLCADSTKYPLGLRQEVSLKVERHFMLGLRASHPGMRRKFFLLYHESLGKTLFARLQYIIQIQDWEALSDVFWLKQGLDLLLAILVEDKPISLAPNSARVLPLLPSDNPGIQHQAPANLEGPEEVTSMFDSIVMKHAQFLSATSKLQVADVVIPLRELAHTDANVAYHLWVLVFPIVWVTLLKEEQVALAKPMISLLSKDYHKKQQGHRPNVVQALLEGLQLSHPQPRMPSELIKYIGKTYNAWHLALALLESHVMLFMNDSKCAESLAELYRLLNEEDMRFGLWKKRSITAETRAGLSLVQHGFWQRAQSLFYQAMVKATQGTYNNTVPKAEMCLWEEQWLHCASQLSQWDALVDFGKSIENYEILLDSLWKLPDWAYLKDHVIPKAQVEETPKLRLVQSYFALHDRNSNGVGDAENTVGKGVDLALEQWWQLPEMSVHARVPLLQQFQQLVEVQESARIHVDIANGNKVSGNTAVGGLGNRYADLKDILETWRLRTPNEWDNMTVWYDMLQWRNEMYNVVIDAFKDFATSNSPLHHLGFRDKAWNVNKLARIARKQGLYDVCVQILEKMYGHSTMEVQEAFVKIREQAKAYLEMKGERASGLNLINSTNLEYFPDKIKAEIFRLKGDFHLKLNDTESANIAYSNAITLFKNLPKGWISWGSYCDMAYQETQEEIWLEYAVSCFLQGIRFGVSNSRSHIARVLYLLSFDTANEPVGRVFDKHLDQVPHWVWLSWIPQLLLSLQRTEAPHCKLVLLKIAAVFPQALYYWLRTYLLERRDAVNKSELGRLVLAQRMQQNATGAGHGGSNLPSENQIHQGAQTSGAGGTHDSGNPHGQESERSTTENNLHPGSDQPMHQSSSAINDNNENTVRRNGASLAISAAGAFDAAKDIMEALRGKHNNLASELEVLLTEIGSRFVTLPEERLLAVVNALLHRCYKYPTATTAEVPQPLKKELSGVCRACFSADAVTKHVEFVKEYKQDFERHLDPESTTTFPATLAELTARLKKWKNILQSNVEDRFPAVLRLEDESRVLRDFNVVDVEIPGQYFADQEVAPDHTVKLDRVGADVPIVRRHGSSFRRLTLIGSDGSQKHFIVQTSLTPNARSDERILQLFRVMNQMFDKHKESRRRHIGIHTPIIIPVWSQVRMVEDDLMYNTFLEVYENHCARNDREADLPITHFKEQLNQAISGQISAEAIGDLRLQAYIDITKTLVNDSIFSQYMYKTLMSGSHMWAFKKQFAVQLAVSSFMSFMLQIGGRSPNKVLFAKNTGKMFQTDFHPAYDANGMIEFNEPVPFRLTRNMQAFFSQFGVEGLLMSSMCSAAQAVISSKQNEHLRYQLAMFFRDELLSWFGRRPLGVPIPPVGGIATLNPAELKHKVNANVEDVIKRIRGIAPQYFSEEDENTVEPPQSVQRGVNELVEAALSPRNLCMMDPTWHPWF

Experiments:
Experiment in all cases: affinity purification with mass spectrometry; tandem affinity purification (IgG-Sepharose, then streptavidin-Sepharose columns, washes at 4°C) of GS^rhino-tagged ARP6 from 50 g of 6-day-old transgenic seedlings; on-bead digestion, LC-MS/MS; hits filtered against a WT TAP and the list of 760 known non-specific binders of the tag
[1] = target: T1, N-TAP-ARP6 (ACTIN RELATED PROTEIN 6 with the GS^rhino TAP-tag at its N-terminal end) (Arabidopsis thaliana) (UniProt Q8LGE3)
T1 sequence: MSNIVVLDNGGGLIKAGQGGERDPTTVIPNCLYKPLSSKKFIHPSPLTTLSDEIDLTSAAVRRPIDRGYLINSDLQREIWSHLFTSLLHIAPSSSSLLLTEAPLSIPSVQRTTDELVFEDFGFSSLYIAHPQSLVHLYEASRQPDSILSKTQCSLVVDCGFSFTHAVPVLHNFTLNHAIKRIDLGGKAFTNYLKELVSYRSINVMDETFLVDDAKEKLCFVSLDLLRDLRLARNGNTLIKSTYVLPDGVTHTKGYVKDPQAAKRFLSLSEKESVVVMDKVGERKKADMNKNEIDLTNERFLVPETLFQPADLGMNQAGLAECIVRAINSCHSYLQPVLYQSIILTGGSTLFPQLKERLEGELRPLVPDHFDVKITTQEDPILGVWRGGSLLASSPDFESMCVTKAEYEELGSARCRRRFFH

[2] = target: T2, C-TAP-ARP6 (ACTIN RELATED PROTEIN 6 with the GS^rhino TAP-tag at its C-terminal end) (Arabidopsis thaliana) (UniProt Q8LGE3)
T2 sequence: T1 sequence

[3] = target: T1, N-TAP-ARP6 (ACTIN RELATED PROTEIN 6 with the GS^rhino TAP-tag at its N-terminal end) (Arabidopsis thaliana); remark: listed apart in the source
[4] = target: T2, C-TAP-ARP6 (ACTIN RELATED PROTEIN 6 with the GS^rhino TAP-tag at its C-terminal end) (Arabidopsis thaliana); remark: listed apart in the source

Molecule: TRA1B
- binding [1]: binds
- binding [2]: binds

Molecule: HTB4 (H2B histone) (from UniProt P40283 1-150)
- binding [1]: binds
- binding [2]: binds

Molecule: Methyl-CpG-BINDING DOMAIN 9 (MBD9), endogenous (from UniProt Q9SGH2 1-2176)
- binding [1]: binds
- binding [2]: binds

Molecule: PHOTOPERIOD-… EARLY FLOWERING 1 (PIE1) (from UniProt Q7X9V2 1-2055)
- binding [2]: binds

Molecule: HTA11 (H2A.Z paralog) (from UniProt O23628 1-136)
- binding [1]: binds
- binding [2]: binds

B5: YAF9b (protein, UniProt F4IPK2 1-268)
chain: MESDIEILSEADASMRKLRIFGIDDREDENGRRRIKDVEVYVPIVCGSIAFYLGKKATEYRTHKWTVYVRGATNEDLGVVIKRVIFHLHPSFNNPTRVVDAPPFALSECGWGEFKIDITVFFHTDVCEKKLELSHVLKLNPENAYGPIPKSIKIPVVAESYNEVVFPDPFESFVARVHNHPAIQISNIPDGLNLPPPGVADTYYLMEKGDTKEHPLSPWFLKFSEVEELFKLTAARQKVQADIAKLKRQLIMVDGQPEGLESSSGYEC
- binding [3]: no binding
- binding [4]: no binding

B6: AL6 (Alfin1-like family) (protein, UniProt Q8S8M9 1-256)
chain: MEGITHPIPRTVEEVFSDFRGRRAGLIKALTNDMVKFYQTCDPEKENLCLYGLPNETWEVNLPVEEVPPELPEPALGINFARDGMQEKDWVSLVAVHSDSWLLSVAFYFGARFGFGKNERKRLFQMINELPTIFEVVSGNAKQSKDLSVNNNNSKSKPSGVKSRQSESLSKVAKMSSPPPKEEEEEEDESEDESEDDEQGAVCGACGDNYGTDEFWICCDACEKWFHGKCVKITPAKAEHIKHYKCPTCSNKRARP
- binding [3]: binds
- binding [4]: binds

Second part, the molecule after the results:

- binding [1]: binds
- binding [2]: binds
Molecule: HTB2 (H2B histone) (from UniProt Q9FFC0 1-145)

- binding [1]: binds
- binding [2]: binds
Molecule: TRA1A (from UniProt F4IPJ1)

- binding [1]: binds
- binding [2]: binds
Molecule: RuvB1 (from UniProt Q9FMR9 1-458)

- binding [1]: binds
- binding [2]: binds
Molecule: RuvB2 (from UniProt F4K569)

- binding [3]: binds
- binding [4]: binds
B1: SWR1 COMPLEX SUBUNIT 2 (SWC2) (protein, UniProt F4IP06 1-365)
chain: MEIDEEEPMVFLDRTTRATRGKRMTKLLDDEVEEDEQFWNQEALKEEEHDDEYEAEREVADEFDSDFNDDEPEPDAVAVNEKELRDLPKKRLIYPGKTASKKKKKKTKVVSQLEYIPGDEKPGEELGNKEQEEKEENEAQEDMEGEKVIRKSTRTSVVVRQAERDALRAAIQATTKPIQRKKVGEEKRMTQEEMLLEAAQTEIMNLRNLERVLAREEEVKKKAIVHKAVYKGPQIRYHSKDGCNYLEFCNGASFNSELSTKSVPYPEKAVCVITGLPAKYRDPKTGLPYATRDAFKAIRERFMDEHDGLRKKMEMGDLFDTLVAKGFATKQKRTKIPKSNKSFSLRSSARFLSSESEEESEEDSD

- binding [3]: binds
- binding [4]: binds
B2: SWC4 (protein, UniProt Q8VZL6 1-441)
chain: MGGTDAKDILGLPKTPLSLTQEKKSRPQKESHRKPDGISREVYALTGGVAPLMPSIDLKRRPPADEKVAWKWLSFTNSARKDDLQLYHWVRVVNDVPPTGDYSFAKYNKSVDILKYTDEEYENHLTDSVWTKEETDQLFEFCQNFDLRFVVIADRFPVSRTVEELKDRYYSVNRALLRARAQSPADVANHPLMKEPYDITRDRERKRALSMVLSQSRHQEKKDAEILAEAKRITEMRLAARRAEEPDVSANENAGLDKADGVVPGRSVSPTSNSQLPATAVAPSTLTMADYASTLASLRMLHVYLRTYGLEQMVQAASSAVGLRTIKRVEQTLQDLGVNLKPKVPTKTVCDEHLELRKEILTLLNLQKQLQYKESEGSSHREGSYAAMPDTPKDRVFAPDPFSFGAERPIKKEQKRKGPGRQADTPSPAHKRPRKLKASDL

- binding [3]: binds
- binding [4]: binds
B3: YAF9a (protein, UniProt Q9FH40 1-268)
chain: MTNSSSSKKQAQDQPETSEPTLKSLKTKMTKSDEKQKKLKDIEISVPIVYGNVAFWLGKKASEYQSHKWAVYVRGATNEDISVVVKKVVFQLHSSFNSPTRVIEEPPFEVSESGWGEFEIAMTLHFHSDVCDKPLSLYHHLKLYPEDESGPLTMKKPVVVESYDEIVFPDPSESFLARVQNHPALTFPRLPSGYNLPAPMQVEDTGKKKRGDTKDHSLGQWFMSFSEADELLQLAAARQQVQAHIAKLRRQISLLEGQNQTVKTGSDL

- binding [3]: binds
- binding [4]: binds
B4: SWC6 (protein, UniProt Q9FHW2 1-171)
chain: MEEEMSNRRVSNRTRKVATKMAAALTSNDNRTQAAIARLEALENDNGAIEVIDLNDDEEASLDEDDDLGYLQKKQHKGSKRKTRQAKALEARKAPKSFLELLQEANLESLPSHVPTYLKAAVGPPSSSSRRYFCSVCGYIAGYNCCLCGMRFCSIRCQNIHKDTRCQKFVA

- binding [3]: binds
- binding [4]: binds
B7: ARP4 (protein, UniProt Q84M92 1-441)
chain: MYGGDEVSAIVVDLGSHTCKAGYAGEDAPKAVFPSVIGAVDGVEAMDVDVDSTKTNSNSEDSKTESEKEKSKRKLYVGSQAMSYRRDHMEVLSPIKDGIVSDWDLVDNIWEHAFKSCLMIDPTEHPMLLAEPPLNTQQQREKAAELMFEKYKVPALFMAKNPVLTSFATGRATSLVVDCGGGSTTISPVHDGYVLQKAVVSSPLGGEFLTDCLLKSLESKGIKIRPRYSFKRKEVRAGEFQVEDVDIPDTTESYKLFCQRMIVGDIKDSICRVPDTPYDDKSYSNIPTTSYELPDGQTLEIGADRFKVPDVMFNPSIVQTIPGMEKYAEMIPSVRGLPHMVMESINKCDVDIRRELYSSILLAGGTSSMQQLKERLEKDLIEESPHSARVKVLASGNTTERRFSVWIGGSILASLGSFQQMWFSKSEYEEHGASYIQRKCP

- binding [3]: binds
- binding [4]: binds
B8: ALFIN-LIKE 5 (AL5) (protein, UniProt Q5XEM9 1-260)
chain: MEGGTAHYSPRTVEEVFRDFKGRRAGIIQALTTDVEDFFQQCDPEKQNLCLYGFPNEVWEVNLPAEEVPPELPEPALGINFARDGMQERNWLSLVAVHSDAWLLSVSFYFGSRFGFDRADRKRLFSMINEVPTVYEVVTGNAEKQTKEMPSSANQNGNRSKSNSKMRGLESKSSKTIHAKDEEEGLELEEGEEEEDEDEDEHGETLCGACGDNYASDEFWICCDMCEKWFHGECVKITPARAEHIKHYKCPTCSNKRARP

- binding [3]: binds
- binding [4]: binds
B9: AL7 (Alfin1-like family) (protein, UniProt Q8LA16 1-252)
chain: MEGIQHPIPRTVEEVFSDFRGRRAGLIKALSTDVQKFYHQCDPEKENLCLYGLPNETWEVNLPVEEVPPELPEPALGINFARDGMQEKDWISLVAVHSDSWLISVAFYFGARFGFGKNERKRLFQMINDLPTIFEVVTGNAKQSKDQSANHNSSRSKSSGGKPRHSESHTKASKMSPPPRKEDESGDEDEDDEQGAVCGACGDNYGGDEFWICCDACEKWFHGKCVKITPAKAEHIKHYKCPSCTTSKKMKA
